From ROBIN, a set of small-molecule microarray screens (doi:10.1002/anie.202211358).

Oligonucleotides screened, 5′ to 3′:
T1: TPP riboswitch RNA three-way junction, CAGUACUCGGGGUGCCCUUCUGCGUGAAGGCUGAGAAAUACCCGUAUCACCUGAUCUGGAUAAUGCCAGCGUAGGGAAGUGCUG. About 24,000 compounds screened, about 160 hits.
T2: PreQ1 riboswitch RNA pseudoknot, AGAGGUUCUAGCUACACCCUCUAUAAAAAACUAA. From B. subtilis. About 24,000 compounds screened, about 170 hits.
T3: SAM-II riboswitch RNA pseudoknot, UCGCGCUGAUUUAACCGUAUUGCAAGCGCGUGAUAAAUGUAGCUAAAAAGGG. About 21,000 compounds screened, about 200 hits.

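Each compound is printed as two spots on a slide made to bind it covalently, so it has no test concentration; the read-out is fluorescence of the bound, labelled oligonucleotide. The data file lists only calls. An earlier report of the laboratory on the PreQ1, TPP and SAM-II riboswitches (doi:10.1038/s41467-019-09493-3) used 1 µM RNA for 2 h and required a mean Z-score above 3 (spot signal-to-noise against the whole library), a score well above that on a control array, and duplicate spots agreeing (coefficient of variation under 100); it then also set aside compounds that hit other targets, which this list keeps. The cut-offs behind this list may differ. These are primary screening calls, not affinities; a compound without a hit may have attached poorly or may still bind in solution.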
A compound is marked hit if it was called a hit and none if it was screened but was not.
This is an unselected part of the compounds tested.
A dash means that no call is listed here.

| Compound | T1 | T2 | T3 |
|---|---|---|---|
| `CCOC(=O)C1=C(C)OC(N)=C(C(=O)OC)C12C(=O)N(C)c1ccccc12` (configuration not stated) | none | none | none |
| `CCOC(=O)C1CCN(c2c(NCCCN3CCC(C)CC3)c(=O)c2=O)CC1` | none | none | none |
| `O=C(NC1CCCCC1)c1ccc2c(c1NCCO)C(=O)c1ccccc1C2=O` | none | none | none |
| `COCCN(C)C[C@H]1C[C@H](CO)CN(C(=O)c2ccc[nH]2)C1` | none | none | none |
| `O=C(c1ccc(F)c(F)c1)N1CCC(C(O)CCc2ccccc2)CC1` (configuration not stated) | none | none | none |
| `N=C(N)NCCO` | none | none | none |
| `O=C1CN2Cc3c(ccc(Cl)c3Cl)NC2=N1` | none | none | none |
| `O=C1CCCCN1CCNc1nc(NC2CC2)nc2c1CCNCC2` | none | none | none |
| `CCOC(=O)c1c(N)nn(C(=O)c2ccc(Br)cc2)c1-c1ccc(OC)cc1` | none | none | none |
| `O=C1C[C@H]2CC[C@@H](CN1CCC(=O)N1CCCc3ccccc31)N2` | none | none | none |
| `C=CCOC(=O)C1=C(C)OC(N)=C(C#N)C1c1ccc(Cl)cc1` (configuration not stated) | none | none | none |
| `Cc1nc(NC[C@H]2C[C@@H](CO)N(C)[C@H]2c2ccccc2F)c2c(C)nn(C)c2n1` | none | none | none |
| `COc1ccc(C2NCCC3(O)CCCCC23)cc1OC.Cl` (configuration not stated) | none | none | none |
| `Cc1cn2cc(C(=O)NC(C)c3nnc(N)s3)ccc2n1` (configuration not stated) | none | none | none |
| `Nc1c(C(=O)N2CCOCC2)sc2nc3c(cc12)CCCC3` | none | none | none |
| `Cc1cc(C)n(-c2nc(C)c(C(=O)NCCO)s2)n1` | none | none | - |
| `Cc1ccc(CNc2ncccc2-c2nc(-c3ccccc3)no2)cc1` | none | none | - |
| `COc1cccc(-c2cnc(NCc3ccc(Cl)cc3)n2C)c1` | none | none | none |
| `CCc1c(C)nc2nncn2c1Nc1ccc(C)c(F)c1` | none | none | - |
| `Cc1ccc2cc(CNCC(C)O)c(=O)[nH]c2c1C` (configuration not stated) | none | none | - |
| `Cc1ncc2c(c1CNC(=O)COCc1ccccc1)CCNC2` | none | none | none |
| `CCC(NC1CCN(c2ccccc2F)CC1)c1ccccn1` (configuration not stated) | none | none | none |
| `CNCc1nc(C2CC2)nn1-c1ccc(F)cc1` | none | none | none |
| `c1ccc(CC(NCc2c[nH]c3ccccc23)c2ccccc2)cc1` (configuration not stated) | none | none | none |
| `Cc1nnc2sc(-c3ccccc3N)nn12` | none | none | none |
| `Cc1ccccc1-c1ncc(CNCc2cc3ccc(F)cc3[nH]c2=O)s1` | none | none | none |
| `N#CC1=C(N)OC2=C(C1c1cccc(Cl)c1)S(=O)(=O)N(Cc1ccc(F)cc1)c1ccccc12` (configuration not stated) | none | none | - |
| `O=C(NCc1cc2n(n1)CCNC2)c1cccc(C(F)(F)F)c1` | none | none | none |
| `COc1ccc(Br)cc1CNCc1cccc(OC)c1OC` | none | none | none |
| `Cc1cc2c(c(=O)o1)C(c1c(F)cccc1Cl)C(C#N)=C(N)O2` (configuration not stated) | none | none | none |
| `NC(=O)c1ccc(-c2nc3c(c(N4CCc5n[nH]cc5C4)n2)CCNC3)cc1` | none | none | none |
| `c1ccc(CNc2ncc(CN3CCCC4(CCNC4)C3)cn2)cc1` (configuration not stated) | none | none | none |
| `CNc1ccc(C(=O)N(Cc2ccccc2)c2ccccn2)cc1[N+](=O)[O-]` | none | none | none |
| `CCOC(=O)c1cc(OCC)c2c(ccc3ccccc32)n1` | none | none | none |
| `CC[C@H](C)[C@H](N)C(=O)N1CCC(Cn2cc(C3CCCC3)nn2)CC1` | none | none | none |
| `C=CCN1C(=O)C2(C(C(=O)OC(C)C)=C(C)OC(N)=C2C(=O)OCC)c2ccccc21` (configuration not stated) | none | none | none |
| `CCOc1ccc(CCNc2nc3ccccc3n3cnnc23)cc1OCC` | none | none | none |
| `Cc1ccc(CNc2nc3ccccc3cc2-c2noc(C)n2)cc1` | none | none | - |
| `Cc1nc(CCC(=O)N2C[C@H](CO)C[C@H](CN3CCOCC3)C2)n[nH]1` | none | none | none |
| `CCOc1ccc(OCC)c(Nc2cc(C)nc3nc(C)nn23)c1` | none | none | none |
| `C#CCN1C(=O)C2(C(C(=O)OCC)=C(N)OC3=C2C(=O)CC(C)(C)C3)c2ccccc21` (configuration not stated) | none | none | none |
| `CCCc1c(C)nc2ncnn2c1Nc1ccc(C(C)=O)cc1` | none | none | none |
| `Nc1c(C(=O)Nc2ccccc2Cl)c2ccccn2c1C(=O)c1ccccc1` | none | none | - |
| `Cc1ccc(C(C)Nc2ncccc2-c2nc(-c3cccc(C)c3)no2)cc1` (configuration not stated) | none | none | - |
| `CC1CCN(S(=O)(=O)c2cccc(N)c2)CC1` | none | none | - |
| `Cc1nc(C)c(-c2cc(C)c3c(C)nc(C)nc3n2)c(N)n1` | none | none | none |
| `Cc1ccc2nc(CN3CC[C@H]4CNC[C@H]43)cn2c1` | none | none | none |
| `CC1(C)CC(=O)C(=CNCCO)C(=O)C1` | none | none | none |
| `COc1ccc(OC)c(COCC(O)CN2CCN(c3cccc(Cl)c3)CC2)c1.Cl` (configuration not stated) | none | none | none |
| `O=C(NCc1cc2n(n1)CCNC2)C1CCCN(c2ccccn2)C1` (configuration not stated) | none | none | none |
| `N#CC1=C(N)N(c2c(F)cccc2F)C2=C(C(=O)CCC2)C1c1ccccc1` (configuration not stated) | none | none | none |
| `CC1(C)OC2CC(=O)OCC23C1CC(=O)C1(C)C3CCC2(C)C(c3ccoc3)OC(=O)C3OC321` (configuration not stated) | none | none | none |
| `CC(C)c1csc(CN2C[C@H](C3CC3)[C@@H](N)C2)n1` | none | none | none |
| `Cc1cc(C)cc(N2C(=O)CC(Nc3ccc(N4CCOCC4)cc3)C2=O)c1` (configuration not stated) | none | none | none |
| `CCC(CC)N(Cc1ccccc1F)C(=O)c1ccc2c(c1)ncn2CCO` | none | none | none |
| `Cc1nnc(N2CC[C@H]3NCCC[C@]3(CO)C2)o1` | none | none | none |
| `CC(C)(C)c1ccc(C2C(C#N)=C(N)N(c3ccc(F)cc3)C3=C2S(=O)(=O)CC3)cc1` (configuration not stated) | none | none | none |
| `COC(=O)C1=C(N)OC2=C(C(=O)CC(C)(C)C2)C1c1cccnc1` (configuration not stated) | none | none | none |
| `Cc1cc(Oc2ccccc2)nc(N)n1` | none | none | none |
| `COc1cc(CNCc2cc(F)ccc2F)cc(OC)c1OC` | none | none | none |
| `NCC1CCN(C(=O)c2cnc(-c3cc(Cl)cc(Cl)c3)nc2O)C1` (configuration not stated) | none | none | none |
| `CC[C@@]1(O)CCN(C(=O)Cc2ccccc2OCc2ccccc2)C[C@H]1O` | none | none | none |
| `Cc1ccc(NC(CC(=O)C2CC2)c2ccccc2)cc1` (configuration not stated) | none | none | none |
| `O=C(O)c1ccc(Nc2nc(-c3ccc(Cl)cc3)cs2)cc1` | none | none | none |
| `COCCc1nc([C@H]2CC[C@@H](N)C2)n(-c2ccc(OC(F)(F)F)cc2)n1` | none | none | none |
| `CC1=C(c2cccc(Cl)c2)S(=O)(=O)N=C1Nc1ccc2c(c1)OCCO2` | none | none | - |
| `Nc1c(-c2ccccc2)nsc1C(=O)O` | none | none | none |
| `CCN(CC)C(=O)[C@@H]1C[C@H](N)CN1C(=O)c1c(C)n(C)c2ccc(O)cc12` | none | none | none |
| `O=C(O)c1cccc(Nc2nc(-c3cccs3)cs2)c1` | none | none | none |

The first 8 entries again:

| Compound | T1 | T2 | T3 |
|---|---|---|---|
| `CCOC(=O)C1=C(C)OC(N)=C(C(=O)OC)C12C(=O)N(C)c1ccccc12` (configuration not stated) | none | none | none |
| `CCOC(=O)C1CCN(c2c(NCCCN3CCC(C)CC3)c(=O)c2=O)CC1` | none | none | none |
| `O=C(NC1CCCCC1)c1ccc2c(c1NCCO)C(=O)c1ccccc1C2=O` | none | none | none |
| `COCCN(C)C[C@H]1C[C@H](CO)CN(C(=O)c2ccc[nH]2)C1` | none | none | none |
| `O=C(c1ccc(F)c(F)c1)N1CCC(C(O)CCc2ccccc2)CC1` (configuration not stated) | none | none | none |
| `N=C(N)NCCO` | none | none | none |
| `O=C1CN2Cc3c(ccc(Cl)c3Cl)NC2=N1` | none | none | none |
| `O=C1CCCCN1CCNc1nc(NC2CC2)nc2c1CCNCC2` | none | none | none |